In all, about 71,000 compounds went through this assay and about 310 (0.44%) were called active. The inconclusive results got no clear call from the source; some entries with a clear call stand among them for comparison. Calls come from the whole dose curve; as a rule, active = well fitted curve in either direction with a large enough effect; inconclusive = small, poorly fitted or top-dose-only effect, or another doubt; inactive = flat fitted curve, though single readings scatter. Where the call is inconclusive, the potency comes from a doubtful curve fit.
Tested on: Hsp90 C-terminal peptide / TPR2A (Hop) interaction, human
Test: qHTS Assay for Disrupters of an Hsp90 Co-Chaperone Interaction
Conditions: AlphaScreen TPR2A-His6 binding biotin-Hsp90 C-terminal peptide; activity change, negative = inhibition: at 57 µM (top of the series) unless noted
% is set by controls: 0 for no effect and ±100 for the full control effect; potency is the fitted concentration of half-maximal effect.

Row | SMILES | activity change, negative = inhibition | Potency
1 | Cc1cccc(Nc2ccccc2C(=O)O)c1C | inactive | –
2 | CCCc1nnc(SCc2ccc(OC)cc2)n1N | inconclusive: 37.9% | –
3 | OC[C@H](CCc1c[nH]c2ccccc12)c1c[nH]c2ccccc12 | inactive: -10.9% [at 11 µM] | –
4 | Cc1noc(C)c1CSc1cc(C)c2ccccc2n1 | – | inconclusive: 25.1 µM [activator, single point]
5 | CC(C)Oc1ccc(C2NC(=O)NC2=O)cc1 (centres undefined) | inconclusive: 64% | –
6 | O=c1nc(-c2ccccc2)c2ccccc2[nH]1 | inactive | –
7 | CC(=O)N1CCc2cc(S(=O)(=O)NCCC(=O)NC3CCCc4ccccc43)ccc21 (centres undefined) | inconclusive: 55.9% | –
8 | CCCC(=O)C1=C(SCC)CC(C)(C)C(C(=O)OC)C1=O (centres undefined) | inactive | –
9 | N#Cc1nc(Cc2cccc3ccccc23)oc1NCCN1CCCCC1 | – | active: 7.94 µM
10 | CCOc1ccc(N2C(=O)CCC2=O)cc1 | inconclusive: 47.5% | –
11 | COc1ccc(S(=O)(=O)NCCC(=O)NC2CCCCCCC2)cc1 | inactive | –
12 | Cc1cc(=O)oc(C)c1C(=O)N1CCN(C(c2ccccc2)c2ccccc2)CC1 | inconclusive: 40.4% | –
13 | COc1ccc(Cc2nc(-c3ccccc3)no2)cc1 | inactive | –
14 | O=C(c1cc2ccccc2cc1OCC(O)CN1CCCCC1)N1CCCCC1 (centres undefined) | inactive: -5.76% [at 2.3 µM] | –
15 | CCc1nc(N[C@@H](Cc2c[nH]c3ccccc23)C(=O)O)c2oc3ccccc3c2n1 | inconclusive: 42.9% | –
16 | O=C(Cn1cccc1C(=O)c1ccccc1)NCc1ccc2c(c1)OCO2 | inconclusive: 33.8% | –
17 | c1ccc(CCc2nn3c(Cn4cnc5ccccc54)nnc3s2)cc1 | inactive | –
18 | O=C(CSc1nnc(-c2ccc(Br)o2)n1Cc1ccccc1)c1ccccc1F | inactive | –
19 | CCn1c(C)c(C(C)=O)c(N2CCN(C(=O)c3ccco3)CC2)nc1=S | inconclusive: 45.2% | –
20 | O=C(Nc1nc(-c2ccccn2)cs1)C1COc2ccccc2O1 (centres undefined) | – | active: 15.8 µM
21 | CCOC(=O)CCCNS(=O)(=O)c1c(C)ccc2nsnc12 | inconclusive: -37.7% | –
22 | O=C1c2ccccc2C(=O)c2c(Nc3cc4c5c(ccc6c7ccc8c9c(cc(Nc%10cccc%11c%10C(=O)c%10ccccc%10C%11=O)c(c3c56)c97)-c3ccccc3C8=O)C(=O)c3ccccc3-4)cccc21 | – | inconclusive: 3.16 µM [inhibitor, partial curve]
23 | COc1ccc(N2CCN(c3nc(NC(C)(C)C)nc(N4CCCCC4)n3)CC2)cc1 | – | inconclusive: 12.6 µM [inhibitor, partial curve]
24 | COCc1nnc(NC(=O)c2ccc(S(=O)(=O)N(C)C3CCCCC3)cc2)o1 | – | inconclusive: 39.8 µM [inhibitor, single point]

7 compounds from above, ordered by count of non-hydrogen atoms, low to high:
Row | SMILES | activity change, negative = inhibition | Potency
5 | CC(C)Oc1ccc(C2NC(=O)NC2=O)cc1 (centres undefined) | inconclusive: 64% | –
13 | COc1ccc(Cc2nc(-c3ccccc3)no2)cc1 | inactive | –
20 | O=C(Nc1nc(-c2ccccn2)cs1)C1COc2ccccc2O1 (centres undefined) | – | active: 15.8 µM
19 | CCn1c(C)c(C(C)=O)c(N2CCN(C(=O)c3ccco3)CC2)nc1=S | inconclusive: 45.2% | –
24 | COCc1nnc(NC(=O)c2ccc(S(=O)(=O)N(C)C3CCCCC3)cc2)o1 | – | inconclusive: 39.8 µM [inhibitor, single point]
18 | O=C(CSc1nnc(-c2ccc(Br)o2)n1Cc1ccccc1)c1ccccc1F | inactive | –
15 | CCc1nc(N[C@@H](Cc2c[nH]c3ccccc23)C(=O)O)c2oc3ccccc3c2n1 | inconclusive: 42.9% | –

Reference: PubChem BioAssay AID595 (National Center for Advancing Translational Sciences (NCATS), 2007)
